Data taken from PubChem BioAssay AID1347075 (National Center for Advancing Translational Sciences (NCATS), 2019).
Among all 400,000 compounds or so, about 5,500 (1.4%) were called active. This list was built around the results that the source calls inconclusive (neither active nor inactive); the mix of calls is not that of the screen. Calls come from the whole dose curve; as a rule, active = well fitted cell-killing curve with a large enough effect; inconclusive = small, poorly fitted or top-dose-only effect, or effect the other way; inactive = flat fitted curve, though single readings scatter. Where the call is inconclusive, the potency comes from a doubtful curve fit.

Assay: qHTS assay for MDR1-selective chemotherapeutics: Primary screen using the parental adenocarcinoma cell KB-3-1; note: nearly all actives have a fitted effect of over 60% in size
Details: KB-3-1 viability, CellTiter-Glo ATP luminescence, 72 h; activity change, negative = cytotoxic: at 46.1 µM (top of the series)
Method in brief: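 Cytotoxicity measured as CellTiter-Glo luminescence after 72 h at 37 C. Compound titrations were pinned onto drug-naive KB-3-1 parental adenocarcinoma cells grown in DMEM with 10% FBS, and normalized data fitted to concentration-response curves.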
% is set by controls: 0 for no effect and ±100 for the full control effect; potency is the fitted concentration of half-maximal effect.

SMILES	Potency	activity change, negative = cytotoxic
COC(=O)[C@]12CCCCC=C1N(CCC1=CCCCC1)C(=O)[C@H](CC(=O)NCc1ccc(C)o1)C2	inactive	–
CSc1cccc(NC(=O)C2CCN(C(=O)c3cnn(-c4ccccc4)c3-n3cccc3)CC2)c1	inconclusive: 16.4 µM [cytotoxic, partial curve, poor fit]	–
COc1ccc(-c2csc(NC(=O)COc3ccc(N(C)S(=O)(=O)c4ccc(C)cc4)cc3)n2)cc1	inactive	–
COc1ccc(NC(=O)CCS(=O)(=O)c2ccc(OC)cc2)cc1	inactive	–
COc1ccc(N2CCN(CCCNC(=O)C(=O)c3c(C)[nH]c4ccccc34)CC2)cc1	inconclusive: 18.4 µM [cytotoxic, single point]	–
CCC(c1nnnn1Cc1ccco1)N(CCc1ccccc1)Cc1cc2cc(C)ccc2[nH]c1=O (stereo not drawn)	inconclusive: 29.1 µM [cytotoxic, single point]	–
O=C1CN(c2ccc(Cl)cc2)C(=O)CN1NC(=S)Nc1ccc(Cl)cc1	inactive	–
CC(=O)NC1=CC(=O)c2nonc2C1=O	active: 5.17 µM	–
OC(c1ccccc1)(c1nc(-c2ccc3ccccc3c2)cs1)C(F)(F)F (stereo not drawn)	inconclusive: 29.1 µM [cytotoxic, single point]	–
C=CCSc1nc2ccccc2n1C(=O)/C=C/c1ccc(OC)c(OC)c1	inconclusive: 29.1 µM [cytotoxic, single point]	–
O=C(O)c1ccccc1Nc1ccc([N+](=O)[O-])c2nonc12	inconclusive: 23.1 µM [cytotoxic, partial curve, poor fit]	–
CCCC(=O)Nc1ccc2c(c1)nc(CCN1CCC(C)CC1)n2C	inactive	–
Cc1ccc(O)c(NC(=O)c2ccc3c(c2)C(=O)N(Cc2ccco2)C3=O)c1	inactive	–
O=C(CSc1ccccc1)Nc1ccc(-c2nc3ccccc3[nH]2)cc1	active: 20.6 µM	–
COc1cc2[nH]c(=O)n(CCCC(=O)N3CCN(c4cccc(C(F)(F)F)c4)CC3)c(=O)c2cc1OC	inactive	–
CCN1CCN(P2(=O)C=C(c3ccccc3)OC(c3ccccc3)=C2)CC1	inactive	–
CC(C)(C)OC(=O)N[C@@H](COCc1ccccc1)C(=O)N[C@@H](CO)[C@H](O)[C@@H]1C[C@@H]1C(=O)NC1CCCCC1	inconclusive: 29.1 µM [rising, single point]	–
COc1ccccc1/C=C(\C#N)C(=O)c1cccn1C	inactive	–
CN(C(=O)COC(=O)COc1ccc(Cl)cc1Cl)c1c(N)n(Cc2ccccc2)c(=O)[nH]c1=O	inactive	–
Cc1ccc(NC(=O)C2CCN(c3cc(C)nc4c(-c5ccc(Cl)cc5)c(C)nn34)CC2)c(C)c1	inactive	–
CCc1ccc(-c2nc3c(=O)n(C)c(=O)nc-3n(CC)n2)cc1	inconclusive: 10.3 µM [cytotoxic, partial curve, poor fit]	–
COc1ccccc1N1CCN(C(=O)CN2C(=O)COc3ccc(S(=O)(=O)N4CCC(C)CC4)cc32)CC1	inactive	–

SMILES	Potency	activity change, negative = cytotoxic
Cc1ccc(Cl)cc1NC(=O)CN1C(=O)NC(C)(C2CC2)C1=O (stereo not drawn)	–	inconclusive: 18.8%
NC(=O)c1c(NC(=O)c2c(F)cccc2F)sc2c1CCN(Cc1ccccc1)C2	inconclusive: 29.1 µM [cytotoxic, single point]	–
c1ccc2c(c1)CSc1sccc1C2=C1CCNCC1	inconclusive: 18.4 µM [cytotoxic, single point]	–
COc1ccc(-c2nc3c(C)cc(Br)cn3c2Cc2ccc(C)cc2)cc1OC	inconclusive: 29.1 µM [cytotoxic, single point]	–
Fc1ccccc1Cn1c(-c2ccccc2)nc2ccccc21	inconclusive: 29.1 µM [cytotoxic, single point]	–
CCN(C(=O)c1cc2c(=O)[nH]c3ccc(C)cc3c2s1)c1ccccc1C	inconclusive: 29.1 µM [cytotoxic, single point]	–
CCn1cc(SCC(=O)NCc2ccc3c(c2)OCO3)c2ccccc21	inconclusive: 32.6 µM [cytotoxic, partial curve, poor fit]	–
CC(=O)c1ccc(NC(=O)COCc2cc(-c3ccco3)on2)cc1	inactive	–
C[C@H](CO)N1C[C@H](C)[C@H](CN(C)C(=O)N[C@H](C)c2ccccc2)OCc2ccccc2-c2c(n(C)c3ccccc23)C1=O	inconclusive: 29.1 µM [cytotoxic, single point]	–
Cc1cccc(C)c1NC(=S)N/N=C/c1ccc(OCCC(C)C)cc1	inconclusive: 23.1 µM [cytotoxic, single point]	–
CCc1cc(=O)[nH]c(SCCc2ccccc2)n1	active: 13 µM	–
Cc1cccc(C)c1NC(=O)C(C1CC1)n1c(=O)c(-c2cc3ccccc3[nH]2)nc2ccccc21 (stereo not drawn)	inconclusive: 32.6 µM [cytotoxic, partial curve, poor fit]	–
C[C@]12c3[nH]c4cc(-c5ccco5)ccc4c3CCN1C(=O)[C@@H](CC(=O)NCC13CC4CC(CC(C4)C1)C3)C[C@@H]2C(=O)N1CCCCC1	inconclusive: 29.1 µM [cytotoxic, partial curve, poor fit]	–
Cc1ccc2oc3c(c(=O)c2c1)C(c1cccc(O)c1)N(c1ccccn1)C3=O (stereo not drawn)	inconclusive: 0.0016 µM [cytotoxic, full curve, poor fit]	–
CCCCCNC(=O)C1CC(=O)OC12CCCCC2 (stereo not drawn)	inactive	–
O=C(Nc1cccnc1)c1sc(Nc2ccccc2)nc1-c1ccccc1	inconclusive: 6.51 µM [rising, partial curve]	–
Cc1cc(C)n(-c2nc(C)nc(NCc3ccccc3)n2)n1	inconclusive: 29.1 µM [cytotoxic, single point]	–
Cn1nc(C(F)(F)F)c(-c2ccc(Br)cc2)c1NC(=O)Nc1ccc(F)cc1F	inconclusive: 29.1 µM [cytotoxic, single point]	–
CCN(C[C@H]1N[C@@](Cc2ccccc2)(C(=O)OC)[C@H]2C(=O)N(C)C(=O)[C@@H]12)C(=O)COc1ccccc1	inactive	–
CC(C)(C)c1ccc(-n2ncc3c2CCCC3NC(=O)CCCn2cncn2)cc1 (stereo not drawn)	inactive	–
CCCc1ccc(C(=O)NC(=O)c2ccccc2O)cc1	inconclusive: 20.6 µM [cytotoxic, single point]	–

Complete entries from above. Values in the order: Potency | activity change, negative = cytotoxic
Cc1ccc2oc3c(c(=O)c2c1)C(c1cccc(O)c1)N(c1ccccn1)C3=O (stereo not drawn) is listed with inconclusive: 0.0016 µM [cytotoxic, full curve, poor fit] | –
CC(=O)c1ccc(NC(=O)COCc2cc(-c3ccco3)on2)cc1 is listed with inactive | –
